{
  "sequences": {"note": "Amino acid sequences for entries named in this document (tags omitted).", "UniProt A0A384J919": "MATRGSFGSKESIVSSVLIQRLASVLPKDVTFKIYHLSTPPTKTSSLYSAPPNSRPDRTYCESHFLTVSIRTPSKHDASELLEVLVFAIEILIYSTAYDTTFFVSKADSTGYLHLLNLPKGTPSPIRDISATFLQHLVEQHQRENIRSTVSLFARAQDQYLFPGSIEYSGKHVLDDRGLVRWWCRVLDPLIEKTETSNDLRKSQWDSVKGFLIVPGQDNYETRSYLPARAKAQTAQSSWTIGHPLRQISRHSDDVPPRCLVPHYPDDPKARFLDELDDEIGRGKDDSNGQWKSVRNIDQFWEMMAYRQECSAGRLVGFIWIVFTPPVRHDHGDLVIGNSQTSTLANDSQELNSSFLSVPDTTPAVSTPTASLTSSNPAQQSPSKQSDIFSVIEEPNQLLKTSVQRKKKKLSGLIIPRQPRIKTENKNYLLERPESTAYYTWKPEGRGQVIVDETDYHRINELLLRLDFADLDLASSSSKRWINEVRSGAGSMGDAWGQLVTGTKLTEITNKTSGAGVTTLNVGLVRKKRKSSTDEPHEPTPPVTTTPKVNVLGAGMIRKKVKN"},
  "source": "paper PMC7613639",
  "about": "“Broad-spectrum chemicals block ROS detoxification to prevent plant fungal invasion” (Current biology : CB, 2022)",
  "biological_target": "BcTol1-GFP (B. cinerea (strain B05.10))",
  "assay": "affinity purification with mass spectrometry; coIP from mycelia of the BcTol1-GFP transformant with anti-GFP agarose, trypsin digest, LC-MS/MS",
  "note": "Results are given in words; binding and its absence hold for the method and conditions named. Binding seen in cells or lysates may run through a third protein. A yes stands for co-enrichment or nearness to the bait. Other partners may have been found.",
  "data": [
    {"substance": "BcRtt109, endogenous (from UniProt A0A384J919 1-563) (enzyme)", "values": [
      {"measurement": "binding", "value": "binds"}
    ]}
  ]
}
